The values that follow come from patent EP0904128B1, “COMPOSITION AND SYSTEM FOR IONTOPHORETIC TRANSDERMAL DELIVERY OF DRUGS” (priority 1996, dated 1997).

For the data set the following is noted: phosphate-buffer 6 mM, pH 7,4, 37 °C.

In the case of `Nc1c2c(nc3ccccc13)CCCC2` [tacrine, 9-amino-1,2,3,4-tetrahydroacridine], the “tacrine released from the fiber” value (after initial burst of about 6 - 12 h) is given as 50%. Further, where the note is “during the first 10 hours”, the “Tacrine release rate from the cationic ion-exchange fiber” value is on record as “about 375 g/h per cm^2”.
